PubChem BioAssay AID1259424 – University of Nebraska Medical Center – 2018
Shown is one part, drawn at random, of about 14,000 reagents tested. 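Higher correlation or smaller distance means closer resemblance to KSR1 loss; control wells, including KSR1 knockdowns, recur on many plates.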 No sequences are given here. The record does not give: the time to read-out.

- Assay: 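Find knockdowns that reproduce the expression shifts seen after KSR1 loss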 (primary screen)
- Cell system: human HCT116 colon cancer cells
- Knock-down reagent: siRNA pool against human genes, 50 nM
- Measurement: 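Six signature mRNAs by branched-DNA multiplex assay, scaled to two housekeeping genes and non-targeting median, log2; matched to mean KSR1 knockdown profile by Pearson correlation and euclidean distance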
- Reading the numbers: mean correlation with KSR1 profile and KSR1 correlation: higher = expression change more like KSR1 knockdown; mean distance from KSR1 profile: higher = expression change less like KSR1 knockdown

gene	mean correlation with KSR1 profile	mean distance from KSR1 profile	KSR1 correlation, replicate 1	KSR1 correlation, replicate 2	KSR1 correlation, replicate 3
TYRO3 (GeneID 7301)	0.0731	2.36	0.454	-0.325	-0.276
ACTA1 (GeneID 58)	-0.492	2.7	-0.445	-0.485	-0.535
ZIC1 (GeneID 7545)	0.198	2.3	-0.077	0.175	0.48
GEMIN2 (GeneID 8487)	0.352	1.58	0.371	0.128	0.295
DGKG (GeneID 1608)	0.346	2.96	0.585	0.398	-0.0685
MAPK1 (GeneID 5594)	0.494	1.14	0.434	0.601	0.612
ADM (GeneID 133)	-0.165	2.77	-0.183	-0.259	-0.0238
SLC44A4 (GeneID 80736)	0.0177	3.55	-0.179	0.0112	-0.0706
DNAI1 (GeneID 27019)	-0.362	2.64	-0.295	-0.424	-0.371
USP15 (GeneID 9958)	0.156	2.06	0.205	0.147	0.0475
RUFY2 (GeneID 55680)	-0.622	1.6	-0.756	-0.403	-0.656
CYP20A1 (GeneID 57404)	-0.183	3.23	-0.352	-0.157	-0.0223
ACYP2 (GeneID 98)	0.79	0.918	0.881	0.761	0.778
AQP1 (GeneID 358)	0.0826	1.85	0.0926	0.0675	0.107
MDFIC (GeneID 29969)	0.0138	2.02	-0.0997	0.0926	-0.262
COX6C (GeneID 1345)	0.406	1.79	0.452	0.401	0.354
MPO (GeneID 4353)	0.632	0.748	0.479	0.548	0.616
PCBD1 (GeneID 5092)	0.163	4.48	0.202	0.0385	0.0648
LOC51212 (retired record) (GeneID 51212)	-0.217	2.52	-0.186	-0.289	-0.296
RBM6 (GeneID 10180)	0.578	1.16	0.485	0.771	0.318
